The values are deposited in ChEMBL (CHEMBL3988442, “University of Dundee, Small-Polar-MMV Screening Library” (2021)).

Protein sequences, listed by entry. Tags and fused reporters are not part of them.
UniProt E9BF75, entry or part of it: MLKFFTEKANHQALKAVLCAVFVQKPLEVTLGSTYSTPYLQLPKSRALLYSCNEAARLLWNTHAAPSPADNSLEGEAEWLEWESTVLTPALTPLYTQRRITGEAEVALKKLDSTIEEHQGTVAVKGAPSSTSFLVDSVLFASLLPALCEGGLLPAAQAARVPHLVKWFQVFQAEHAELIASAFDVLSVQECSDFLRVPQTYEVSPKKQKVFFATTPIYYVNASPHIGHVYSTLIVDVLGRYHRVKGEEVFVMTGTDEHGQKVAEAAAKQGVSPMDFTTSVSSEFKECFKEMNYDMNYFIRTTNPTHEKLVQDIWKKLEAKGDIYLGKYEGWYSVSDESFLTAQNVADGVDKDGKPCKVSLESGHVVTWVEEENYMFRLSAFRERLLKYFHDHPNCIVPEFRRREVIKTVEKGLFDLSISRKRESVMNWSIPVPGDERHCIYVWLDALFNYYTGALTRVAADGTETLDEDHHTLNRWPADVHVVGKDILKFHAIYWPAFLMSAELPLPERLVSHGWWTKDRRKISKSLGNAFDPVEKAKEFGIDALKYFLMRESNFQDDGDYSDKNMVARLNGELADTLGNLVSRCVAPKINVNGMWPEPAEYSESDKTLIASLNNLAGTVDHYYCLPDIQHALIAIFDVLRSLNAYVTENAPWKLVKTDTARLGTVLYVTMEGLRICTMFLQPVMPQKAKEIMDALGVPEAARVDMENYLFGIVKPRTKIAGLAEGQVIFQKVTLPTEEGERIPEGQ

LdMetRS: 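Methionyl-tRNA synthetase (putative), Leishmania donovani (UniProt E9BF75). Primary screen of methionyl-tRNA synthetase; the read-out is not stated. The test concentration is not given. Values are per cent inhibition. About 68,000 compounds were tested under these conditions; 0.035% (about 24) showed 50% or more at least once.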
Mtb heat-shock: 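Assay on Mycobacterium tuberculosis, filed only as a heat shock assay from Cornell; the read-out is not stated. The concentration is filed as 10 mM, unlikely as a test dose, so the dose is not known. Higher reads as stronger inhibition (inferred: compounds with an IC50 in retests scored well above the rest). About 69,000 compounds were tested under these conditions; 1.4% (about 930) showed 50% or more at least once.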

Results are percentages, as filed. The record does not define 0% and 100%; most values in the screen are far below 50% and negative numbers occur (in some assays of this library far below -100). Compounds were drawn at random from those tested, without regard to their results. A dash means the value is not listed here; it may have been measured.

| Compound | LdMetRS | Mtb heat-shock |
|---|---|---|
| `CCc1cnc(N2C[C@@H](NC(=O)c3cscn3)[C@H]3COC[C@H]32)nc1` | 1.049 | - |
| `O=C(c1cccc(C2CCNC2)c1)N1CCC(c2ccncc2)CC1` (stereo not given) | 22.19 | -7.011 |
| `NC(=O)c1c(NC(=O)CCC(=O)O)sc2c1CCc1ccccc1-2` | 17.07 | 6.703 |
| `Cc1cc(N2CCCC2)nc(CNS(=O)(=O)Cc2ccccc2)n1` | 12.15 | 25.78 |
| `O=C(O)C(F)(F)F.O=C1CCC2(CCCN(CCc3ccccc3)C2)N1Cc1cccnc1` (stereo not given) | - | -25.35 |
| `CC(=O)N[C@@H]1CN(C(=O)c2csc(C(C)C)n2)C[C@H]1C(C)C` | 14.03 | -5.842 |
| `Cc1cn2c(n1)CCC(NC(=O)Cn1cncn1)C2` (stereo not given) | 13.69 | 13.14 |
| `COCCNc1ccc(CC2CCCN(Cc3c[nH]cn3)C2)nn1` (stereo not given) | 4.724 | 18.07 |
| `Cc1ccc(C(=O)N2CCN(c3ncnc4nc(N)ccc34)CC2)o1` | 13.71 | -1.248 |
| `Cc1nc(CCN2CCCCC2)n(-c2ccc(F)cc2)n1` | 3.015 | -9.7 |
| `CCn1nc(C)c2nnn(CC(=O)Nc3cccc(F)c3)c(=O)c21` | -25.88 | -5.776 |
| `CN(C)Cc1cnc2n1CCN(C(=O)Cc1ccsc1)CC2` | 12.68 | - |
| `CCOc1nnc(CN2CCCC(c3nc4ccccc4[nH]3)C2)s1` (stereo not given) | 7.521 | -18.83 |
| `O=C(CSCC1CC1)N1CCCC(c2nccn2Cc2ccccn2)C1` (stereo not given) | 1.418 | -24.76 |
| `CCOCC1CN(C(=O)c2cc(C)oc2C)Cc2c1cnn2C.O=C(O)C(F)(F)F` (stereo not given) | - | 38.21 |
| `[H][C@@]12CCN(C(=O)c3ccnnc3)C[C@@]1([H])O[C@@H](c1ccncn1)C2` | - | -4.826 |
| `Cn1cccc1C(=O)N1CCC(c2nnc(Cn3ccnc3)n2C)CC1` | 14.11 | -9.697 |
| `O=C(O)C(F)(F)F.[H][C@]12CCN(S(C)(=O)=O)CC[C@@]1([H])S(=O)(=O)CCN2Cc1cccc(C)n1` | - | -48.83 |
| `CC(=O)N1CCN(C(=O)C2SCCc3sccc32)CC1` (stereo not given) | 5.714 | -2.688 |
| `COCCn1cc(-c2cc(C(=O)N3CCCC3)c3ccccn23)nc1C` | -327.6 | -5.8 |
| `Cl.O=C(c1ccnc(C2CCNCC2)c1)N1CCCOCC1` | - | -3.625 |
| `CC(C)(C)CC(NC(=O)N1CCS(=O)(=O)CC1)C(F)(F)F` (stereo not given) | 14.41 | 7.345 |
| `Cc1nc(C)c2c(n1)CCN(Cc1ccco1)CC2` | 8.065 | 1.706 |
| `Cc1cccc(OCC(=O)N2CCN(C3CCOC3=O)CC2)c1C` (stereo not given) | 18.71 | 2.298 |
| `COc1ccccc1OCC(=O)NCc1ncc(C)c(OC)c1C` | 9.622 | -10.94 |
| `Cc1nc(NC2CCCC2)cc(C2CCN2C(=O)c2ccccc2)n1` (stereo not given) | 11.3 | -3.419 |
| `CC(C)(C)n1cc(NCc2cscn2)cn1` | 18.55 | 4.95 |
| `N[C@@H]1c2ccccc2C2(CCN(c3cc(C(F)(F)F)ccn3)CC2)[C@H]1O` | 34.62 | 2.612 |
| `O=C(CCc1ccccc1)N1CC(n2cncn2)C1` | 20 | 14.55 |
| `Cn1cnc(S(=O)(=O)N2CC3(CCN(CC4CC4)C3)C2)c1` | 5.865 | - |
| `CC(C)=CCS(=O)(=O)Cc1nc(C(C)C)no1` | 7.829 | 58.08 |
| `Cc1ccccc1C1(CNC(=O)NC(C)c2nncn2C)CC1` (stereo not given) | 12.01 | -12.38 |
| `CCc1n[nH]c(C2CN(C(=O)Cc3cccs3)CCO2)n1` (stereo not given) | 8.743 | -25.71 |
| `O=C(O)C(F)(F)F.O=C(c1cnccn1)N1CCC2(CC1)CCN(Cc1ccccn1)C2=O` | - | -24.58 |
| `CCN(CC)C(=O)c1cc(-c2cccc(Cl)c2)no1` | 8.707 | 4.633 |
| `Cc1ccc(O)c(C(=O)N2CCC(CN3CCCCCC3)CC2)c1` | 14.52 | 10.11 |
| `CCc1cc(NCC(N)=O)nc(N2CCCCC2)n1` | 17.1 | 1.126 |
| `COc1cccn(CC(=O)N(C)CCOc2cc(C)cc(C)c2)c1=O` | 12.5 | 2.218 |
| `Cc1ccc(-c2noc([C@@H]3Cc4nc[nH]c4CN3)n2)cc1` | 9.89 | 24.06 |
| `Cl.O=C(CCn1c(C(F)(F)F)cc2cccnc21)N1CCCC1` | - | 1.851 |
| `COc1cc(CNCCn2cc(C)cn2)c2c(c1)CC(C)O2` (stereo not given) | 5.435 | -47.28 |
| `Clc1ccc(-c2ccc(C3CNCCO3)nc2)cc1` (stereo not given) | 13.41 | - |
| `Cc1ccc2c(C(=O)N(C)C)cc(-c3cnn(CCO)c3)nc2c1C` | 18.41 | 6.097 |
| `CC(C)CCN(C(=O)c1nc(S(C)(=O)=O)n2ccccc12)C1CC1` | 12.72 | 11.63 |
| `Cn1ccnc1CN1CCN(Cc2ccc(C#N)cc2)CC1` | 19.37 | -11.47 |
| `CCN(Cc1ccco1)C(C)c1nc(C(C)C)no1` (stereo not given) | 4.693 | -17.07 |
| `CCN1CCN(c2ccc(C(=O)NCCOC)cc2F)CC1` | 7.186 | -7.62 |
| `Cc1ccc(C)c(CC(=O)Nc2cccc(C(=O)N(C)C)n2)c1` | 12.53 | 1.95 |
| `COCCN1CCc2cc(C(=O)NCC3CC3)c(NC(C)C)nc2CC1` | 17.99 | - |
| `O=C(c1ccc2c(c1)OCO2)N1CCC(Nc2cccnn2)CC1` | 9.402 | -20.72 |
| `c1nc2c(c(NCCCn3cncn3)n1)CCN(CC1CCOC1)CC2` (stereo not given) | 10.13 | -6.939 |
| `COC(=O)CC(c1ccc(OC)c(OC)c1)c1oc(C)cc(=O)c1O` (stereo not given) | 10.37 | 0.5837 |
| `Fc1ccc(N2CCCN(Cc3ccc(-c4cc[nH]n4)o3)CC2)cc1` | 14.29 | 13.82 |
| `Cc1ocnc1C(=O)N1CCN(C(=O)CC(C)C)[C@@H]2CS(=O)(=O)C[C@@H]21` | 4.878 | - |
| `Cn1cc(-c2c(C#N)c(N)nc3c2CCc2[nH]ccc2-3)cc1C#N` | 18.47 | 3.109 |
| `O=C(O)C(F)(F)F.O=C(O)C(F)(F)F.O=C(O)C(F)(F)F.[H][C@]12CCN(Cc3ccccn3)[C@@]1([H])CC[C@H](COCc1ccccn1)O2` | - | 4.762 |
| `O=C(CN1CCC(C(=O)c2cc(F)ccc2F)CC1)NC1CCCC1` | 5.634 | -16.16 |
| `CC(=O)N[C@@H]1CN(C(=O)c2cc(C)oc2C)C[C@H]1c1ccc(C)o1` | 12.24 | 19.52 |
| `Cc1occc1CNC(=O)Nc1ccc2nc(N3CCOCC3)oc2c1` | 14.24 | 13.38 |
| `O=C(NN1CCCc2ccccc21)c1c[nH]c(=O)[nH]1` | 9.441 | 2.375 |
| `CC(O)CN1CCC(CN(C)Cc2ccc(C#N)cc2)CC1` (stereo not given) | 8.02 | -19.17 |

The last 4 entries again:

CC(=O)N[C@@H]1CN(C(=O)c2cc(C)oc2C)C[C@H]1c1ccc(C)o1 gave LdMetRS: 12.24%; Mtb heat-shock: 19.52%.
Cc1occc1CNC(=O)Nc1ccc2nc(N3CCOCC3)oc2c1 gave LdMetRS: 14.24%; Mtb heat-shock: 13.38%.
O=C(NN1CCCc2ccccc21)c1c[nH]c(=O)[nH]1 gave LdMetRS: 9.441%; Mtb heat-shock: 2.375%.
CC(O)CN1CCC(CN(C)Cc2ccc(C#N)cc2)CC1 (stereo not given) gave LdMetRS: 8.02%; Mtb heat-shock: -19.17%.